Data taken from article PMC4741580.
These are yes or no findings as the source states them, for the method shown. Binding seen in cells or lysates may run through a third protein. Some results given as binding are weak or reduced against the parent protein; the word gives no strength.

Amino acid sequences for entries named in this document (tags omitted). A change or cut given only in a name is not applied to a line headed by its entry.
UniProt P38936: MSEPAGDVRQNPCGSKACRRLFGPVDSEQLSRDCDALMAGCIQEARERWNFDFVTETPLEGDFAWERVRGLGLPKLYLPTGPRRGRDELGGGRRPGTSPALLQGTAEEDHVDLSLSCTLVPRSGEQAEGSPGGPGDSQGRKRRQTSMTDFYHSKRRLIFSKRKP
UniProt Q96LA8: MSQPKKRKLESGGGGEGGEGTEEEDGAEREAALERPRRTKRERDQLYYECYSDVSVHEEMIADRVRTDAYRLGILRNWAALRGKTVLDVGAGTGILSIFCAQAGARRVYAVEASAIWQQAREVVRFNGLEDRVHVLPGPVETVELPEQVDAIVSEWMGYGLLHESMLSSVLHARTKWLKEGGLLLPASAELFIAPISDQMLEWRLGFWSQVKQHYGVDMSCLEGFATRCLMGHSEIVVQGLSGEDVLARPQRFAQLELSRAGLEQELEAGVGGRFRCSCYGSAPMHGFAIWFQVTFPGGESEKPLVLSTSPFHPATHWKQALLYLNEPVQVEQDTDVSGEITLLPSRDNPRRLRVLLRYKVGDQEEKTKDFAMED

Columns and labels:
[1] = target: p21^CDKN1A, endogenous (human (endogenous in 293T)) (UniProt P38936); experiment: co-IP; endogenous proteins: whole-cell extract with a primary antibody at 4°C overnight, protein A/G agarose beads, three washes with PBS, elution by boiling; western blot
HA-p21 (human) = HA-p21 (human) (UniProt P38936); experiment: co-IP; transfected 293T cells lysed 48 h after transfection with CelLytic M; whole-cell extract with anti-FLAG M2 or anti-HA agarose beads at 4°C overnight, three washes with PBS, elution with FLAG or HA peptide; western blot
[2] = target: exogenous p21 (co-immunoprecipitation with the PRMT6 fragment) (human) (UniProt P38936); experiment: as above

Substance	binding [1]	binding (HA-p21 (human))	binding [2]
protein arginine methyltransferase 6 (PRMT6), endogenous (from UniProt Q96LA8 1-375) (enzyme)	binds	binds	–
partial PRMT6 protein (aa 1–209) (from UniProt Q96LA8 1-209) (domain or fragment)	–	–	binds
